From doi:10.1101/458190
Results are given in words; binding and its absence hold for the method and conditions named. Binding seen in cells or lysates may run through a third protein. A yes stands for co-enrichment or nearness to the bait. Other partners may have been found. For some of these results: A no says only that the protein was not detected with the bait.

T1: Halo-SMAD4 (human), Q13485
T1 chain: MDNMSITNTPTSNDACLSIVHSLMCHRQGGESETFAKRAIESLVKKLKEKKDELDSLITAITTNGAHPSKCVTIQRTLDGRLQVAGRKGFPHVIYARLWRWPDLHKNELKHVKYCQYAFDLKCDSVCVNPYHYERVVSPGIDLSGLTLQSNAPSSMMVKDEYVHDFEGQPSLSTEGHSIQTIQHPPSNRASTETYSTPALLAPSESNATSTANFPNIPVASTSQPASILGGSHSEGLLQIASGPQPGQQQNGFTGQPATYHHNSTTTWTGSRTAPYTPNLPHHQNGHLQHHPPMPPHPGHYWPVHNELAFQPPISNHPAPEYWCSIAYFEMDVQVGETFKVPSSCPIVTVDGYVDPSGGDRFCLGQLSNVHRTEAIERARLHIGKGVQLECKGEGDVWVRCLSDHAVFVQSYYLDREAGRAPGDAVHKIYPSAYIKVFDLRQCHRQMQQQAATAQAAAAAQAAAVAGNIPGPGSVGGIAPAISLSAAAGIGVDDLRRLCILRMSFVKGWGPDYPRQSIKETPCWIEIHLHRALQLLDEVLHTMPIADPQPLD

B1: SMAD2, Q15796 1-467 (protein)
chain: MSSILPFTPPVVKRLLGWKKSAGGSGGAGGGEQNGQEEKWCEKAVKSLVKKLKKTGRLDELEKAITTQNCNTKCVTIPSTCSEIWGLSTPNTIDQWDTTGLYSFSEQTRSLDGRLQVSHRKGLPHVIYCRLWRWPDLHSHHELKAIENCEYAFNLKKDEVCVNPYHYQRVETPVLPPVLVPRHTEILTELPPLDDYTHSIPENTNFPAGIEPQSNYIPETPPPGYISEDGETSDQQLNQSMDTGSPAELSPTTLSPVNHSLDLQPVTYSEPAFWCSIAYYELNQRVGETFHASQPSLTVDGFTDPSNSERFCLGLLSNVNRNATVEMTRRHIGRGVRLYYIGGEVFAECLSDSAIFVQSPNCNQRYGWHPATVCKIPPGCNLKIFNNQEFAALLAQSVNQGFEAVYQLTRMCTIRMSFVKGWGAEYRRQTVTSTPCWIELHLNGPLQWLDKVLTQMGSPSVRCSSMS
B2: SMAD3, P84022 1-425 (protein)
chain: MSSILPFTPPIVKRLLGWKKGEQNGQEEKWCEKAVKSLVKKLKKTGQLDELEKAITTQNVNTKCITIPRSLDGRLQVSHRKGLPHVIYCRLWRWPDLHSHHELRAMELCEFAFNMKKDEVCVNPYHYQRVETPVLPPVLVPRHTEIPAEFPPLDDYSHSIPENTNFPAGIEPQSNIPETPPPGYLSEDGETSDHQMNHSMDAGSPNLSPNPMSPAHNNLDLQPVTYCEPAFWCSISYYELNQRVGETFHASQPSMTVDGFTDPSNSERFCLGLLSNVNRNAAVELTRRHIGRGVRLYYIGGEVFAECLSDSAIFVQSPNCNQRYGWHPATVCKIPPGCNLKIFNNQEFAALLAQSVNQGFEAVYQLTRMCTIRMSFVKGWGAEYRRQTVTSTPCWIELHLNGPLQWLDKVLTQMGSPSIRCSSVS
B3: RNF138 (enzyme, UniProt Q8WVD3 1-245)
chain: MAEDLSAATSYTEDDFYCPVCQEVLKTPVRTTACQHVFCRKCFLTAMRESGAHCPLCRGNVTRRERACPERALDLENIMRKFSGSCRCCAKQIKFYRMRHHYKSCKKYQDEYGVSSIIPNFQISQDSVGNSNRSETSTSDNTETYQENTSSSGHPTFKCPLCQESNFTRQRLLDHCNSNHLFQIVPVTCPICVSLPWGDPSQITRNFVSHLNQRHQFDYGEFVNLQLDEETQYQTAVEESFQVNI

Key:
Experiment in all cases: affinity purification with mass spectrometry
[1] = target: T1, Halo-SMAD4 (human), Q13485; details: remark: other sources report otherwise
[2] = target: Halo-SMAD4 phosphorylated by BRK-YF (human) (UniProt Q13485)
[3] = target: Halo-SMAD4 Y353F & Y412F (human) (UniProt Q13485)

| Binder | binding [1] | binding [2] | binding [3] |
| --- | --- | --- | --- |
| B1 | binds | – | – |
| B2 | binds | – | – |
| B3 | – | binds | no binding |
